For 42 sequences, binding signal results are on record in publication PMC7819943, “Rice protein-binding microarrays: a tool to detect cis-acting elements near promoter regions in rice”.

Amino acid sequences for entries named in this document (tags omitted).
UniProt Q0JBA9, entry or part of it: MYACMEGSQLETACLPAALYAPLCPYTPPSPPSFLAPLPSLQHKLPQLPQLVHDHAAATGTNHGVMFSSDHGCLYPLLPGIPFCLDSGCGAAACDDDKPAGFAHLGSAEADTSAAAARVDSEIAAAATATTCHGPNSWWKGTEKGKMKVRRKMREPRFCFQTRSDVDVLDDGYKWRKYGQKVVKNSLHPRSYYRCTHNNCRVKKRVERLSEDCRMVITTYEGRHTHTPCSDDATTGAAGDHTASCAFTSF

Some of the results follow.

The test has as its target OsWRKY34 (Oryza sativa, UniProt Q0JBA9 1-250). The experiment in a line: protein-binding microarray (RPBM); PBS, 2% BSA, 51.3 ng/ul salmon testes DNA, 50 uM zinc acetate, 200 nM TF, 25 C, 1 h; high values mean tight binding. The note with it: protein: recombinant; tags: N-terminal polyhistidine and DsRed monomer fusion (pET32a); label: CyDye5-dUTP incorporated in the synthesized complementary strand; 3' TTTTT single-stranded linker to array surface; dsDNA, one strand shown. Summed up:
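Polyhistidine-tagged DsRed fusions of transcription factors, joined at the N-terminus, were expressed in E. coli BL21-CodonPlus and isolated on Ni–NTA. They were incubated at 200 nM for 1 h at 25 °C on a custom Agilent array, double-stranded and BSA-blocked, in PBS with 2% BSA, salmon testes DNA and 50 µM zinc acetate. The binding signal is per-feature fluorescence intensity (arbitrary units) read on an Axon 4000B scanner after washing.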
Turning to “CGTTCTCTGTCTGTCCCGCACTCCCGCCTTTTGCCAAAGCCGGAGTCACCTAGTGCAG”, the binding signal is 9610 fluorescence intensity (a.u.).

For the sequence “GTCTGTGATCCACTTAAGCCGCAAACTACACGTAAGATATCGGAGTCACCTAGTGCAG”, the binding signal is 10500 fluorescence intensity (a.u.).

For “GTACTGCACTTGGGTTATAACTTCTCGACCTTCAACACTTCGGAGTCACCTAGTGCAG”, the binding signal was 12200 fluorescence intensity (a.u.).

As for “ATATATATATATATATATATATATAAAGCAGAAAGAAATACGGAGTCACCTAGTGCAG”, the binding signal was 9000 fluorescence intensity (a.u.).

“TCTGACTGCTTCGTCGCTTTTCTATCATTGCTATTTTGGTCGGAGTCACCTAGTGCAG”: the binding signal was 9140 fluorescence intensity (a.u.).

As to “TCCATCTGGCGAGCAGAGCAGCGGAGGGGAGGGGATCCTGCGGAGTCACCTAGTGCAG”, the binding signal was 9400 ± 820 fluorescence intensity (a.u.).

Consider “CCTTCTTTTGTGCTTAATCACACTTCAGTTTAGGTTAATACGGAGTCACCTAGTGCAG”, for which the binding signal is 9200 fluorescence intensity (a.u.).

For the sequence “GGGTTGATATATTGATGAATGCTCATATTCCCGATTGATACGGAGTCACCTAGTGCAG”, the binding signal is 10900 fluorescence intensity (a.u.).

As for “TCTTTTGTAGTAAGCTTTCCATTCATATTTTAATTCGTCTCGGAGTCACCTAGTGCAG”, the binding signal is 8570 fluorescence intensity (a.u.).

On to “GCAAAGCAAAGCACCAGGGCAGGGGAGGGGCAGGGAGTTTCGGAGTCACCTAGTGCAG”, for which the binding signal was 10400 fluorescence intensity (a.u.).

On to “ATGTCAATCTAATGTCACTAACCCACCCGCCATTGATCTCCGGAGTCACCTAGTGCAG”, for which the binding signal is 9710 fluorescence intensity (a.u.).

As for “CTGCTTGAATCCTTCTCGCTGAGCTGGCCTGCAGCCTTTTCGGAGTCACCTAGTGCAG”, the binding signal was 9350 fluorescence intensity (a.u.).

Take “GCACGCACTCCCCACCTCGCAACCTCGCCTCGGCTCTGCCCGGAGTCACCTAGTGCAG”: the binding signal was 11500 fluorescence intensity (a.u.).

On to “TTTTTACCTAGCTACTTCCTTAATATCCATGCCCACCTAACGGAGTCACCTAGTGCAG”, for which the binding signal was 11700 fluorescence intensity (a.u.).

Turning to “ACTGCTGACGGATTTCAGATCACTACTCCTACGCCTTACACGGAGTCACCTAGTGCAG”, the binding signal is 9150 fluorescence intensity (a.u.).

Take “CCGCGCCGTGTGCGCTGCATCTATCCATCGGTCGGCTCGACGGAGTCACCTAGTGCAG”: the binding signal is 14100 fluorescence intensity (a.u.).

As to “TATTGATCTTGCTTCTTGGCCCCTTTACGTCACACGTTGACGGAGTCACCTAGTGCAG”, the binding signal is 12000 fluorescence intensity (a.u.).

Turning to “GCCAGGGATGGTAATTGGAAGTGAATTTTTCCTTTATTTACGGAGTCACCTAGTGCAG”, the binding signal was 8230 fluorescence intensity (a.u.).

“GTTCCGAGCACTCATTTTATACTATCACATTTTTTAAATTCGGAGTCACCTAGTGCAG”: the binding signal was 10100 fluorescence intensity (a.u.).

For “AAATTCTGTAGTAGTCCACTTCTGTTCCACCCTTTCCCTGCGGAGTCACCTAGTGCAG”, the binding signal was 8520 fluorescence intensity (a.u.).

As for “TTTATCGCTTTTTTGTCCTTGGCAGCCACCACCACCCTGCCGGAGTCACCTAGTGCAG”, the binding signal was 8320 fluorescence intensity (a.u.).

For “GCTGACCCCGCCTGACTGGCTTCCTTCCCCTTCCACACCTCGGAGTCACCTAGTGCAG”, the binding signal is 9170 fluorescence intensity (a.u.).

Consider “GAGGAGATCGATGGGATGGGCGTGTGCTTTTTTTTCATCTCGGAGTCACCTAGTGCAG”, for which the binding signal is 10200 fluorescence intensity (a.u.).

For the sequence “ATTCCCTTGTTGCTGCTCTAGTAAAAAACATTACAATTATCGGAGTCACCTAGTGCAG”, the binding signal was 8620 fluorescence intensity (a.u.).

Take “CGGGGCTTCCTGGGGCTTCAGTGTGCGCCACTTCTCTCGGCGGAGTCACCTAGTGCAG”: the binding signal is 8370 fluorescence intensity (a.u.).

Consider “GCCGTTTGGGATATTTTGCCGTGGTTGGTCTGGTGGATAACGGAGTCACCTAGTGCAG”, for which the binding signal is 8680 fluorescence intensity (a.u.).

In the case of “TTTTGTTCTAGGCTCGTCATGTACTAGCTACTTGACCTATCGGAGTCACCTAGTGCAG”, the binding signal was 10300 fluorescence intensity (a.u.).

On to “GGATGGGTCGTATTTCTCACACCTTGGCCTGTTAAGTGCACGGAGTCACCTAGTGCAG”, for which the binding signal was 12000 fluorescence intensity (a.u.).

In the case of “TTGGGTTGGGTCTTGGGTTTGGTGGTTTGAATTTGGTGTGCGGAGTCACCTAGTGCAG”, the binding signal is 13100 fluorescence intensity (a.u.).

“CGGCGGCGGCGGCGGTATGTGGAGGCGGGGAAGGGGTCTGCGGAGTCACCTAGTGCAG”: the binding signal is 13300 fluorescence intensity (a.u.).

As to “ACATCCATCACTGAATTTGACCCGTTAGCACTTTCACCATCGGAGTCACCTAGTGCAG”, the binding signal was 11200 fluorescence intensity (a.u.).

As for “ACATCAACGTGTCATACACACACAACTTTTCAGTCACATCCGGAGTCACCTAGTGCAG”, the binding signal is 9010 fluorescence intensity (a.u.).

Turning to “TCACTCATGCAGAGTCACAGCTTGTATAGTTGTAATGCATCGGAGTCACCTAGTGCAG”, the binding signal is 9000 fluorescence intensity (a.u.).

Regarding “TTTTCAGAGTATTGTCTTGCATAATGCATTTGGGTGTTTCCGGAGTCACCTAGTGCAG”, the binding signal was 8510 fluorescence intensity (a.u.).

Take “CGGTTGTTCTTGCATGTTCTTGACGTTTTCTTTTGAGGTACGGAGTCACCTAGTGCAG”: the binding signal is 12400 fluorescence intensity (a.u.).

Consider “ACTCCTACAGTAGTGACTTGAGTAGCGCTTCTTTTTTCCACGGAGTCACCTAGTGCAG”, for which the binding signal is 9440 fluorescence intensity (a.u.).

Take “GGTTGGTGGCGGTGGGCCGGTGGCGGCTCGGTGGCGGAGCCGGAGTCACCTAGTGCAG”: the binding signal is 10200 fluorescence intensity (a.u.).

As for “ATTCTTTTCATATCATTTGATTCATTGTTAAATATACTTTCGGAGTCACCTAGTGCAG”, the binding signal is 9070 fluorescence intensity (a.u.).

As to “GTGTCTATTGCCGTCCTTGACTCTTGCGTGCTCCTCGGATCGGAGTCACCTAGTGCAG”, the binding signal is 9980 fluorescence intensity (a.u.).

Take “CCGCTTGTATTTCTTTCGTTTAACTTCGTTCTCTCCTCTCCGGAGTCACCTAGTGCAG”: the binding signal was 12700 fluorescence intensity (a.u.).

Consider “AACAACAATTCTCTCTCTTGCTCACATTTCCCTTATCAAACGGAGTCACCTAGTGCAG”, for which the binding signal is 8460 fluorescence intensity (a.u.).

In the case of “AACCAAACCAAATTGCACTTCCACCGGTTTACTGTACCCGCGGAGTCACCTAGTGCAG”, the binding signal is 8320 fluorescence intensity (a.u.).
